The text below walks through data of PubChem BioAssay AID330 (DTP/NCI, 2004).

For the assay, the system named is P388 leukemia ip, CD2F1 mice, survival T/C. Kind of assay: NCI In Vivo Anticancer Drug Screen. Data for tumor model P388 Leukemia (intraperitoneal) in CD2F1 (CDF1) mice. The note with it: T/C endpoint: median survival time, higher T/C = longer survival.
Setting [1] is: dose: 100.0 mg/kg/injection, schedule: Q01DX005 (ip), vehicle: Klucel (hydroxypropylcellulose) (HPC).
Setting [2] is: dose: 200.0 mg/kg/injection, schedule: Q01DX005 (ip), vehicle: Klucel (hydroxypropylcellulose) (HPC).
Where [3] appears, read: dose: 100.0 mg/kg/injection, schedule: Q01DX005 (ip), vehicle: saline with Tween-80.
The mark [4] stands for this setting: dose: 200.0 mg/kg/injection, schedule: Q01DX005 (ip), vehicle: saline with Tween-80.
[5] abbreviates: dose: 200.0 mg/kg/injection, schedule: Q01DX009 (ip), vehicle: Klucel (hydroxypropylcellulose) (HPC).
Where [6] appears, read: dose: 100.0 mg/kg/injection, schedule: Q01DX009 (ip), vehicle: Klucel (hydroxypropylcellulose) (HPC).
Setting [7] is: dose: 50.0 mg/kg/injection, schedule: Q04DX002 (ip), vehicle: saline with Tween-80.
Where [8] appears, read: dose: 50.0 mg/kg/injection, schedule: Q01DX009 (ip), vehicle: Klucel (hydroxypropylcellulose) (HPC).
The mark [9] stands for this setting: dose: 240.0 mg/kg/injection, schedule: Q01DX005 (ip), vehicle: Klucel (hydroxypropylcellulose) (HPC).
Where [10] appears, read: dose: 200.0 mg/kg/injection, schedule: Q01DX005 (ip), vehicle: saline.
Setting [11] is: dose: 100.0 mg/kg/injection, schedule: Q04DX002 (ip), vehicle: saline with Tween-80.
[12] abbreviates: dose: 50.0 mg/kg/injection, schedule: Q01DX005 (ip), vehicle: Klucel (hydroxypropylcellulose) (HPC).

The list shows only some results of the screen, not a fair sample: it is rich in T/C values a quarter to a half above the control, in often repeated tests (any T/C) and in doses without a T/C. Further doses and runs are listed elsewhere. T/C: endpoint of the treated group in % of that of the vehicle group. Some doses have a count of surviving animals in place of a T/C: the source holds a T/C of zero for them, seemingly a mark for toxic or unscored doses. Some doses without a T/C left all or most animals alive at the check, yet need not have been tolerated: the source hardly ever lists a survival T/C far under the control, and the zero likely stands for such cases as well. Counts of survivors are from the toxicity check (mostly the fifth day) where no day follows; animals may have died later. Schedules are NCI's codes, taken here to give the interval after Q, in days (D) or hours (H), and the number of doses after X. For survival time, this PubChem deposit counts one and a half times the control or more as active, and values a quarter to a half above the control carry no call in these data; other NCI protocols may use other cut-offs. Some entries hold several experiments; their values stand side by side, smallest first. Some T/C values are followed by the survivors on the day toxicity was checked, most often the fifth; where none is given, no animal had died by that day.

For the compound `NCc1ccc(O)c(O)c1O`, the survivor count by setting is: (dose: 400.0 mg/kg/injection, schedule: Q01DX009 (ip), vehicle: saline) 6 of 6; (dose: 600.0 mg/kg/injection, schedule: Q01DX009 (ip), vehicle: saline) 3 of 6.
Turning to `N#Cc1c(-c2ccccc2)c(C#N)c(=O)n(N)c1N`, the survivor count under setting [1] was 4 of 6 and the survivor count under setting [2] was 2 of 6.
For `O=c1[nH]cnc2cc3c(cc12)nc1n3CCOC1`, the survivor count (dose: 400.0 mg/kg/injection, schedule: Q04DX003 (ip), vehicle: saline) is reported as 2 of 6.
Consider `C1CCC2[N-]CCCC2C1.C1CCC2[N-]CCCC2C1.O=[N+]([O-])O.O=[N+]([O-])O.[Cu+2]` (configuration not stated), for which the survivor count is, setting by setting: (dose: 30.0 mg/kg/injection, schedule: Q01DX005 (ip), vehicle: saline with Tween-80) 3 of 6; (dose: 60.0 mg/kg/injection, schedule: Q01DX005 (ip), vehicle: saline with Tween-80) 0 of 6; (dose: 120.0 mg/kg/injection, schedule: Q01DX005 (ip), vehicle: saline with Tween-80) 0 of 6; (dose: 240.0 mg/kg/injection, schedule: Q01DX005 (ip), vehicle: saline with Tween-80) 0 of 6.
As to `CN(C)C1C(O)C2Oc3c(cc(O)c4c3C(=O)c3cc5c(c(O)c3C4=O)C(OCCBr)CC(C)(O)C5)C(C)(O2)C1O` (configuration not stated), for the setting “dose: 32.0 mg/kg/injection, schedule: Q01DX009 (ip), vehicle: other”, the survivor count is given as 5 of 5.
In the case of `CC(=O)OC[C@@]1(C)[C@@H]2CC[C@]3(C)[C@H](C(=O)C=C4[C@@H]5CC(C)(C)CC[C@]5(C(=O)O)CC[C@]43C)[C@@]2(C)CC[C@@H]1OC(C)=O`, the survivor count is on record as 6 of 6 under setting [3] and 6 of 6 under setting [4].
As to `CCCCn1cnc2c(=S)nc[nH]c21`, where the note is “dose: 400.0 mg/kg/injection, schedule: Q01DX005 (ip), vehicle: saline with Tween-80”, the survivor count is given as 1 of 6.
As for `N#CC1C(=O)NC(=S)NC1c1ccc(Cl)cc1` (configuration not stated), the survivor count under setting [5] is listed as 4 of 6.
For `N#CC(C(=O)O)C(c1c(Cl)cccc1Cl)C(C#N)C(=O)O` (configuration not stated), under setting [4], the survivor count is 3 of 5.
As for `O=C(NC(CCS(=O)(=O)NCc1ccc(S(=O)(=O)F)cc1)C(=O)OCc1ccccc1)OCc1ccccc1` (configuration not stated), where the note is “dose: 50.0 mg/kg/injection, schedule: Q01DX009 (ip), vehicle: other”, the survivor count is listed as 4 of 6.
In the case of `CC(Br)(C(Br)c1ccccc1)[N+](=O)[O-]` (configuration not stated), the survivor count under setting [6] was 4 of 6.
Take `[Cu].[NH-]C1CCCC2CCC[N-]C12.[NH-]C1CCCC2CCC[N-]C12` (configuration not stated): the survivor count (dose: 25.0 mg/kg/injection, schedule: Q04DX002 (ip), vehicle: saline with Tween-80) is recorded as 3 of 6 and the survivor count under setting [7] was 0 of 6.
Consider `COC(=O)/C(=C1/OC(=O)C(c2ccc(Cl)cc2)=C1O)c1ccc(OC)cc1`, for which the survivor count under setting [2] is recorded as 0 of 6.
Take `Cc1cnc(I)[nH]1`: where the note is “dose: 400.0 mg/kg/injection, schedule: Q01DX001 (ip), vehicle: saline”, the survivor count is recorded as 4 of 6.
On to `N#CC(O)COc1nsnc1N1CCOCC1` (configuration not stated), for which the survivor count reads like this: under setting [8], 2 of 6; under setting [6], 0 of 6; under setting [5], 0 of 6.
Consider `CC(=O)OC1CCC2(C)C(=CCC3C2CCC2(C)C3CC3N(c4ccccc4Cl)C32C(C)=O)C1` (configuration not stated), for which, under “dose: 200.0 mg/kg/injection, schedule: Q01DX001 (ip), vehicle: saline with Tween-80”, the survivor count is 6 of 6.
`[Cl][Cu][Cl].c1ccc2c(c1)Sc1ccccc1[N+]2=c1ccc2nc3ccccc3sc-2c1`: the survivor count under setting [9] is on record as 0 of 6.
Regarding `CC(=O)c1ccccc1N=O`, the survivor count (dose: 200.0 mg/kg/injection, schedule: Q01DX001 (ip), vehicle: other) was 3 of 6.
As for `COc1cccc2c1C(=O)c1c(O)c3c(c(O)c1C2=O)C[C@@](O)(C(C)=O)C[C@@H]3OC1CC(N(C)Cc2ccccc2)C(O)C(C)O1` (some centres not stated), the T/C (dose: 3.13 mg/kg/injection, schedule: Q04DX003 (ip), vehicle: distilled water + Tween-80) was 125 % of control; the T/C (dose: 6.25 mg/kg/injection, schedule: Q04DX003 (ip), vehicle: distilled water + Tween-80) is 136 % of control; the T/C (dose: 12.5 mg/kg/injection, schedule: Q04DX003 (ip), vehicle: distilled water + Tween-80) is 145 % of control; the T/C (dose: 25.0 mg/kg/injection, schedule: Q04DX003 (ip), vehicle: distilled water + Tween-80) was 138 % of control; the T/C (dose: 50.0 mg/kg/injection, schedule: Q04DX003 (ip), vehicle: distilled water + Tween-80, evaluated on day 30) was 134 % of control; the T/C (dose: 50.0 mg/kg/injection, schedule: Q04DX003 (ip), vehicle: distilled water + Tween-80, evaluated on day 45) is 128 % of control.
`Cc1ccc(S(=O)(=O)C(Cl)Cl)cc1`: the T/C (dose: 200.0 mg/kg/injection, schedule: Q04DX003 (ip), vehicle: saline with Tween-80) is 125 % of control.
Regarding `COC1CCCC=C1[N+](=O)[O-]` (configuration not stated), the survivor count (dose: 50.0 mg/kg/injection, schedule: Q01DX005 (ip), vehicle: saline) is 0 of 6; the survivor count (dose: 100.0 mg/kg/injection, schedule: Q01DX005 (ip), vehicle: saline) is on record as 0 of 6; the survivor count under setting [10] is 0 of 6.
On to `CN=C(N)N/N=C(\c1ccccc1)c1ccc(F)cc1`, for which the T/C runs as follows: under setting [7], 125 and 127 % of control; under setting [11], 148 % of control [5 of 6 alive]. The survivor count is reported as 3 of 6 (dose: 200.0 mg/kg/injection, schedule: Q04DX002 (ip), vehicle: saline with Tween-80) and 0 of 6 (dose: 400.0 mg/kg/injection, schedule: Q04DX002 (ip), vehicle: saline with Tween-80).
Consider `COc1ccc(/C=N/Nc2cc(C)nc3cc4c(cc23)OCO4)c2ccccc12`, for which the survivor count is 1 of 6 (dose: 25.0 mg/kg/injection, schedule: Q01DX005 (ip), vehicle: Klucel (hydroxypropylcellulose) (HPC)); 0 of 6 under setting [12]; 0 of 6 under setting [1]; 0 of 6 under setting [2].
For the compound `OCCN1CCCN(CCCN2c3ccccc3Sc3ccc(C(F)(F)F)cc32)CC1`, the survivor count reads like this: (dose: 50.0 mg/kg/injection, schedule: Q01DX005 (ip), vehicle: saline with Tween-80) 6 of 6; under setting [3], 1 of 6; under setting [4], 0 of 6.
Consider `O=C1C(c2ccc3ccccc3n2)=C(O)c2ccccc21`, for which the survivor count was 3 of 6 (dose: 120.0 mg/kg/injection, schedule: Q01DX005 (ip), vehicle: Klucel (hydroxypropylcellulose) (HPC)) and 1 of 6 under setting [9].
In the case of `CCN(CC)c1nc(Cl)nc(NC(C)C)n1`, the survivor count (dose: 400.0 mg/kg/injection, schedule: Q04DX003 (ip), vehicle: saline with Tween-80) is listed as 4 of 6.
Consider `CN=C(N)N/N=C(\C)c1ccc(Cl)c(Cl)c1`, for which the survivor count under setting [11] was 2 of 6.
In the case of `N#Cc1ccoc1`, the survivor count is, setting by setting: under setting [12], 3 of 6; under setting [1], 5 of 6; under setting [2], 0 of 6.
With `CCn1cnc(-c2ccccc2)c1-c1ccccc1`, the survivor count (dose: 100.0 mg/kg/injection, schedule: Q04DX003 (ip), vehicle: saline with Tween-80) is on record as 1 of 6.
In the case of `CC1(C)N=C(N)N=C(N)N1c1ccc(S(C)(=O)=O)cc1`, the survivor count by setting is: under setting [3], 4 of 5; under setting [4], 0 of 5.
As for `CN(CCCN(C)N=Nc1ccccc1C(=O)O)N=Nc1ccccc1C(=O)O`, the survivor count (dose: 400.0 mg/kg/injection, schedule: Q01DX009 (ip), vehicle: saline with Tween-80) is on record as 6 of 6.
In the case of `CCC1CCC2CCOCN2C1` (configuration not stated), the survivor count under setting [10] was 2 of 6.
With `COC(=O)C1=NC(=O)C(C#N)=C(C(=O)OC)C1(C(=O)c1ccc(OC)cc1)c1ccc(OC)cc1` (configuration not stated), the survivor count under setting [9] is 6 of 6.
On to `COc1ccccc1NC(=O)Cc1nc(=O)[nH]c(=O)[nH]1`, for which, under setting [8], the survivor count is given as 4 of 6.
